Tests used:
Assay in all cases: biochemical
Δ13 LeuBAT [1] = target: T1, Δ13 LeuBAT (Aquifex aeolicus, UniProt O67854, A261V/E290S/G24D/G408T/I106S/I262L/I359G/N21Y/P362G/S256G/T254S/T409G/Y265F)
Δ13 LeuBAT [2] = target: T1, Δ13 LeuBAT; remark: listed apart in the source
wild-type LeuT = wild-type LeuT (Aquifex aeolicus, UniProt O67854); conditions: saturation binding of 3H-labeled drug, n=3, ±s.e.m

Molecule CN[C@H]1CC[C@@H](c2ccc(Cl)c(Cl)c2)c2ccccc21 [sertraline] has a Kd (Δ13 LeuBAT [1]) of 18 nM, a Ki (Δ13 LeuBAT [2]) of 14 ± 2 nM and a Kd (wild-type LeuT) of 308 ± 63 nM.

Source: publication PMC3904662 (Nature, 2013)
